Record: PubChem BioAssay AID1259425 (University of Nebraska Medical Center, 2018)

Aim: 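Find knockdowns that reproduce the gene expression pattern seen when KSR1 is lost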 (primary screen)
System: HCT116 human colon cancer cells
Knock-down reagent: siRNA pool against human genes, 50 nM siRNA
Measured: 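mRNA of six signature genes measured together by branched-DNA assay after 50 nM siRNA pool, blank removed, divided by geometric mean of two housekeeping genes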
Direction: BNIP3L mRNA: higher = more BNIP3L transcript after knockdown
Here is a random part of about 14,000 reagents tested. Not all columns of the deposit are shown. No sequences are given here. Not stated in the record: the time to read-out.

gene knocked down	BNIP3L mRNA, set 1
CNGB3	0.127
RSBN1	0.0758
DPP4	0.076
ZNF175	0.127
DNPH1	0.105
PTTG3P	0.0534
EPHB2	0.104
PTPN21	0.0494
PITHD1	0.123
CCDC93	0.0615
SLC27A5	0.063
COQ5	0.222
RPS28	0.0748
ZNF26	0.0882
MYO1C	0.0659
RBM47	0.0787
CDH7	0.143
TPTE2	0.124
EFCC1	0.132
ART4	0.0529
TIMP2	0.0644
HNRNPR	0.0832
SLITRK3	0.0923
CHRNB1	0.0427
PFN1P3	0.138
GAS2	0.0407
LYRM4	0.0725
F7	0.44
KCNN4	0.0945
RAB9BP1	0.0301
LSM6	0.106
S100A13	0.0626
TFG	0.0885
SLC6A15	0.0514
RBM34	0.12
PRPF18	0.145
CDKL1	0.0867
SPAG11B	0.137
ECSIT	0.223
CD47	0.125
HIBADH	0.183
DNAJC27	0.146
NUDT15	0.0905
HTR3B	0.247
SLC35F2	0.24
CHRNG	0.0635
PCDHB3	0.198
GOPC	0.0838
C2	0.0304
MYH11	0.0989

Part of the list above in another layout.
{"gene knocked down": "CCDC93", "BNIP3L mRNA, set 1": 0.0615}
{"gene knocked down": "SLC27A5", "BNIP3L mRNA, set 1": 0.063}
{"gene knocked down": "COQ5", "BNIP3L mRNA, set 1": 0.222}
{"gene knocked down": "RPS28", "BNIP3L mRNA, set 1": 0.0748}
